We go through 15 compounds from the supplement of paper PMC12009310.

Molecules are shown by their SMILES. Counter-ions that a name gives are not always drawn. ± gives the standard deviation of the averaged measurements. This is one part of the list. Baselines shift from plate to plate; read single values as rough.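 The cells are a mouse kidney inner medullary collecting duct line, silenced either for the ciliary gene Rpgrip1l or with a non-targeting control siRNA.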

For experiment [1], the system named is mIMCD3. Description: robust z score of cell number vs plate controls; higher = more cells (less cytotoxic). The note with it: 10 µM, 48 h.
The test system of experiment [2] is mIMCD3. In words: robust z score of cilia incidence (% cells with single cilium) vs plate controls; higher = more ciliated cells. The note with it: 10 µM; 48 h; siRNA: siScr.
Experiment [3] has as its system mIMCD3. In words: robust z score of cilia incidence (% cells with single cilium) vs plate controls; higher = more ciliated cells (rescue of cilia loss). The note with it: 10 µM; 48 h; siRNA: siRpgrip1l.

With `NCCCCCCCCCCNS(=O)(=O)c1cccc2c(Cl)cccc12` [A-7 hydrochloride], the “robust z score of cell number” value is -122 ± 97 in the experiment on mIMCD3 [1] (siRNA: siRpgrip1l) and -83.1 ± 47 in the experiment on mIMCD3 [1] (siRNA: siScr). Besides, the “robust z score of cilia incidence” value with mIMCD3 [2] is -40.3 ± 8.6; in the experiment on mIMCD3 [3], -42.9 ± 22.
In the same order, the values of `COc1ccc(CCN(C)CCCOc2ccc(S(=O)(=O)c3c(C(C)C)c4ccccc4n3C)cc2)cc1OC` are -57.4 ± 57, -28.2 ± 22, -21.5 ± 13 and -28.2 ± 20.
In the same order, the values of `Brc1c(NC2=NCCN2)ccc2nccnc12` are -0.192 ± 2.3, -4.58 ± 12, 0.712 ± 1 and -4.48 ± 2.4.
In the same order, the values of `NC(=O)N1C(=O)/C(=C(\O)c2cccs2)c2cc(Cl)ccc21` [Tenidap] are -19.8 ± 8.7, -101 ± 85, -14.2 ± 7.4 and -19.4 ± 7.2.
Take `O=C1NC(c2cccc([N+](=O)[O-])c2)=CCN1c1ccccc1O` [Icilin]: the “robust z score of cell number” value with mIMCD3 [1] (siRNA: siRpgrip1l) is 1.19 ± 2; with mIMCD3 [1] (siRNA: siScr), -1.61 ± 0.2. Moreover, the results for the “robust z score of cilia incidence” value with mIMCD3 [2] and in the experiment with mIMCD3 [3] were -0.226 ± 4 and -132 ± 120, respectively.
Taken in the same sequence, the figures for `CCOc1ccc(Nc2nc(-c3c(C)nc4ccccn34)cs2)cc1` were -29.5 ± 28, -14.2 ± 13, -26.6 ± 19 and -29.9 ± 6.7.
Taken in the same sequence, the figures for `CNCCCC12CCC(c3ccccc31)c1ccccc12` [Maprotiline hydrochloride] were -24.1 ± 4.1, -18 ± 8.5, -26.9 ± 4.8 and -25.6 ± 6.8.
On to `N#C/C(=C\c1ccc(O)c(O)c1)C(=O)Nc1ccccc1`, for which the figures for the “robust z score of cell number” value in the experiment on mIMCD3 [1] (siRNA: siRpgrip1l) and in the experiment with mIMCD3 [1] (siRNA: siScr) were -53.5 ± 57 and -23.2 ± 17, respectively. For the same compound, the “robust z score of cilia incidence” value with mIMCD3 [2] was -2.83 ± 4.5; in the experiment with mIMCD3 [3] it was -15 ± 3.1.
Taken in the same sequence, the figures for `CCCCc1nn(-c2ccccc2C(F)(F)F)c(=O)n1Cc1ccc(-c2ccccc2S(=O)(=O)NC(=O)c2sccc2C)cc1` were -28.3 ± 8.1, -129 ± 97, -8.93 ± 2.4 and -17.4 ± 4.
In the case of `CCCn1c(=O)c2[nH]c(C3CCCC3)nc2n(CCC)c1=O`, the “robust z score of cell number” value was 2.17 ± 0.91 with mIMCD3 [1] (siRNA: siRpgrip1l) and -8.63 ± 3 in the experiment on mIMCD3 [1] (siRNA: siScr). The “robust z score of cilia incidence” value in the experiment with mIMCD3 [2] is 2.19 ± 0.062; in the experiment with mIMCD3 [3] it was -4.3 ± 2.4.
For the compound `CCn1c(=O)[nH]c2cc(Cl)c(Cl)cc21`, the figures for the “robust z score of cell number” value in the experiment on mIMCD3 [1] (siRNA: siRpgrip1l) and with mIMCD3 [1] (siRNA: siScr) were -71.7 ± 58 and -8.33 ± 2.5, respectively. Besides, the “robust z score of cilia incidence” value in the experiment with mIMCD3 [2] is 0.45 ± 8.8; with mIMCD3 [3], -10.4 ± 2.3.
In the same order, the values of `CC1=C(/C=C/C(=C/C=C/C(C)=C/C(=O)O)c2ccc(C)cc2)C(C)(C)CCC1` are -29.2 ± 8.4, -139 ± 110, -30.1 ± 5.4 and -41.46 ± 0.26.
In the same order, the values of `O=C1C(SCCO)=C(SCCO)C(=O)c2ccccc21` are -192 ± 220, -44.9 ± 11, -39.6 ± 15 and -455 ± 270.
In the same order, the values of `CCn1ccnc1CC1COc2ccccc2O1` (stereo not given) [Imiloxan hydrochloride] are -7.55 ± 8.2, -3 ± 4.3, -8.54 ± 6 and -15.7 ± 9.8.
For `Cc1ccc2c(=O)c3ccccc3n(CCCN)c2c1C`, the “robust z score of cell number” value with mIMCD3 [1] (siRNA: siRpgrip1l) is -32.4 ± 10; in the experiment with mIMCD3 [1] (siRNA: siScr), -141 ± 110. Further, the “robust z score of cilia incidence” value in the experiment with mIMCD3 [2] is -65.6 ± 12; in the experiment on mIMCD3 [3], -57.9 ± 7.3.
